Results published in publication PMC6513901.
Results are given in words; binding and its absence hold for the method and conditions named. Binding seen in cells or lysates may run through a third protein. Binding calls can cover weak binding; strength is not graded here. Where a sequence is shown, tags or fusion partners need not be part of it.

Target: T1, GFP–APUM9 fusion protein (Arabidopsis) (UniProt Q1PFN9)
T1 sequence: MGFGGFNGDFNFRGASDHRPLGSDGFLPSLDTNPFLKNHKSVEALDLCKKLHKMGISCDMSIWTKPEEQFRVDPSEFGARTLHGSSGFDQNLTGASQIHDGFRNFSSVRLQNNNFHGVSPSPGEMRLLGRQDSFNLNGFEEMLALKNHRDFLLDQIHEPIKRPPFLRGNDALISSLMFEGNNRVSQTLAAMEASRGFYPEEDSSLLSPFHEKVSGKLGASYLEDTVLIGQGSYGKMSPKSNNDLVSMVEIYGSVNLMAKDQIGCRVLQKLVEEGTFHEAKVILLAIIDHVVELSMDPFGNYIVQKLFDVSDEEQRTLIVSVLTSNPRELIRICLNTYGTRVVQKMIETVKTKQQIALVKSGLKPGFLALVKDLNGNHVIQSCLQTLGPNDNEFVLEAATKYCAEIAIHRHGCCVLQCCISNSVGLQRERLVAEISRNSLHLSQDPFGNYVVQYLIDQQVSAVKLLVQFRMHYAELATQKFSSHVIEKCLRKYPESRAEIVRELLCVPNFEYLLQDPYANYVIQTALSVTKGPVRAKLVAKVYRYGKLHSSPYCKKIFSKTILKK
Test: co-IP; GFP co-immunoprecipitation with anti-GFP-Trap_A agarose beads from protein extracts of agroinfiltrated N. benthamiana leaves, 3 d.p.i.; input and eluates analysed by western blot (anti-HA, anti-GFP)

binding: binds
Substance: HA-tagged NbDCP2 (N. benthamiana) (enzyme)
